According to publication PMC8384837:
The list shows a part of the results. At the low end of the ranking the order means little.

target: T1, PUM1 PUF domain R2-VFQ R3-THE R4-TFR N899V + Y900F + C935T + R936H + Q939E + N971T + H972F + Q975R (UniProt Q14671); settings: yeast three-hybrid, YBZ-1, SC-Leu-His + 0.5 mM 3-AT, 4 days
T1 sequence: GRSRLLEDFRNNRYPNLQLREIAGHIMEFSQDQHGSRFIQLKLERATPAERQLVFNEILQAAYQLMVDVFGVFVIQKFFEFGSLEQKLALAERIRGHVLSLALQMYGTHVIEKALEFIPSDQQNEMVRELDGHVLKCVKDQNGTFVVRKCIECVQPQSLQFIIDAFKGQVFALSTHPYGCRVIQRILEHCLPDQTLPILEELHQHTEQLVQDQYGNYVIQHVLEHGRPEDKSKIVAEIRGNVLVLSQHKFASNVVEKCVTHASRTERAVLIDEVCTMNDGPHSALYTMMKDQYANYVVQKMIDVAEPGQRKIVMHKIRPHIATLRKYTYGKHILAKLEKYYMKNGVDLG

| Sequence | binding signal (log2 enrichment (interaction score)) |
| --- | --- |
| GGCUAGAACUAGUGGAUCCCCCGGCGCCCGGCGGCUCGAGCCCGGGUAAGAUUAAUACGUCUGCAUGCCGCCGGGCGCCAUGCCUGCAGGUCGACUCUAGAAAACAUG | -5.76 |
| GGCUAGAACUAGUGGAUCCCCCGGCGCCCGGCGGCUCGAGCCCGGGUAAGGUGAAAGAGUCUGCAUGCCGCCGGGCGCCAUGCCUGCAGGUCGACUCUAGAAAACAUG | -5.8 |
| GGCUAGAACUAGUGGAUCCCCCGGCGCCCGGCGGCUCGAGCCCGGGUAAGAGUGUCACGUCUGCAUGCCGCCGGGCGCCAUGCCUGCAGGUCGACUCUAGAAAACAUG | -5.08 |
| GGCUAGAACUAGUGGAUCCCCCGGCGCCCGGCGGCUCGAGCCCGGGUAAGAUAACGAGGUCUGCAUGCCGCCGGGCGCCAUGCCUGCAGGUCGACUCUAGAAAACAUG | -5.21 |
| GGCUAGAACUAGUGGAUCCCCCGGCGCCCGGCGGCUCGAGCCCGGGUAAGUUCAUAGCGUCUGCAUGCCGCCGGGCGCCAUGCCUGCAGGUCGACUCUAGAAAACAUG | -5.65 |
| GGCUAGAACUAGUGGAUCCCCCGGCGCCCGGCGGCUCGAGCCCGGGUAAGUUUACGCAGUCUGCAUGCCGCCGGGCGCCAUGCCUGCAGGUCGACUCUAGAAAACAUG | -5.99 |
| GGCUAGAACUAGUGGAUCCCCCGGCGCCCGGCGGCUCGAGCCCGGGUAAGUCCAAAGAGUCUGCAUGCCGCCGGGCGCCAUGCCUGCAGGUCGACUCUAGAAAACAUG | -5.52 |
| GGCUAGAACUAGUGGAUCCCCCGGCGCCCGGCGGCUCGAGCCCGGGUAAGUAUAUGAGGUCUGCAUGCCGCCGGGCGCCAUGCCUGCAGGUCGACUCUAGAAAACAUG | -6.01 |
